Test results taken from patent US20250282796A1, “PENEM ANTIBACTERIALS AGAINST MYCOBACTERIAL PATHOGENS AND D,D- AND L,D TRANSPEPTIDASES” (The Johns Hopkins University, priority 2022, published 2025).
“Also recorded” adds a separate entry of the source. For at least one compound, name, drawing or mass did not settle the structure.

Protein sequences, listed by entry. Tags and fused reporters are not part of them. Residues count along the entry.
UniProt I6Y9J2, 56-408: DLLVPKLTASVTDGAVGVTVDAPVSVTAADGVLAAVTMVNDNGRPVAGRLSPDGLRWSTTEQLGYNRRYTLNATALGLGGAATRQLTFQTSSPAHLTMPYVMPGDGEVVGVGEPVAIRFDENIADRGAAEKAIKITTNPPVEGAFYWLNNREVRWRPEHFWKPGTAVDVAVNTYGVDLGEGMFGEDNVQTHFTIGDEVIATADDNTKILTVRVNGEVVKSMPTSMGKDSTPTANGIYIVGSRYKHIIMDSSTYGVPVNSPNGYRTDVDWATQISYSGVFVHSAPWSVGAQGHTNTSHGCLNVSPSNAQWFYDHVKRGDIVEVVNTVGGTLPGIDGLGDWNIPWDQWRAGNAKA
UniProt I6Y204, 28-291: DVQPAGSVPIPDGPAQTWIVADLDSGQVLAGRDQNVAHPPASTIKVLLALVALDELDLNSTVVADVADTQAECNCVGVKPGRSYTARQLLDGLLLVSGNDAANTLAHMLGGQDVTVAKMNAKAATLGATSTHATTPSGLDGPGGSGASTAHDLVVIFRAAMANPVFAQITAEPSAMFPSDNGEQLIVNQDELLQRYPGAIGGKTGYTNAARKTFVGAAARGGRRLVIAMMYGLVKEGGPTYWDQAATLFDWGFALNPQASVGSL

What was measured:
[1] = biological target: T1, LdtMt2 (Mycobacterium tuberculosis, UniProt I6Y9J2); experiment: LdtMt2 adduct formation by intact-protein UPLC-HRMS; assay type: binding; details: penem 20 μM, 1 h, 25 mM HEPES pH 7.0, 20° C.
T1 construct: made in house

[2] = biological target: T2, DacB2 (Mycobacterium tuberculosis, UniProt I6Y204); experiment: DacB2 adduct formation and stability comparison by intact-protein UPLC-HRMS; assay type: binding; details: 20° C.
T2 construct: made in house

C[C@@H](O)[C@H]1C(=O)N2C(C(=O)O)=C(SC3CNC3)S[C@H]12 [Compound T422, (5R,6S)-3-(azctidin-3-ylthio)-6-((R)-1-hydroxyethyl)-7-oxo-4-thia-1-azabicyclo[3.2.0]hept-2-ene-2-carboxylic acid]
covalent LdtMt2 adduct formed [1]: formed a +86 Da LdtMt2 adduct; also recorded: fragmentation to a M+86 Da 3-hydroxybutyryl group | DacB2 adduct formation ([2]; 20 μM drug, 1 h, pH 7.0): formed intact adducts | DacB2 adduct stability (in words) ([2]; 24 h after removal of free drug): remained completely bound; also recorded: fully bound; also recorded: stable for at least 24 h after drug removal
